From PubChem BioAssay AID624405 (Broad Institute, 2012)
Screen size: about 1,900 compounds; about 250 (13%) were called active. About 4% were inconclusive and are not listed.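 How the source made its calls: active means fitted curve reaches 40% rescue activity at or below the top valid dose, in every test run; inconclusive means test runs disagree, some active and some inactive; inactive means every run misses the threshold or moves the wrong way.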 This is a selection; strong and weak results do not stand in their true shares. Potency and affinity values are given separately.

experiment: suppressors of statin myotoxicity in myotubes, dose response, cell-based, C2C12 myotubes, ATP luminescence, cherry pick (AID 624405); settings: C2C12 myotubes + simvastatin, 48 h, scaled: DMSO wells 0, geranylgeraniol wells 100; at 19.5 µM (top of the series) unless noted;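 further: myotubes are challenged with simvastatin at 10 µM to lower ATP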

SMILES	rescue activity (ATP increase)
CCn1nnnc1SCC(=O)c1ccc(C)cc1C	inactive: -11.8%
O=C(CSc1nc2c(cnn2-c2ccccc2)c(=O)[nH]1)N1CCOCC1	inactive: -32.3%
COc1ccc(COc2ccccc2C(N)=O)cc1F	inactive: 1.16%
C[C@H](CO)N1C[C@H](C)[C@@H](CN(C)Cc2ccc(-c3ccccc3)cc2)Oc2ccc(NC(=O)CCC(F)(F)F)cc2CC1=O	inactive: 12.5%
COc1cc(OC)c(C2=NOC(C(=O)N3CCCc4ccccc43)C2)cc1Cl (stereo unspecified)	inactive: -4.45%
CCCCCCCC(=O)N/N=C/c1ccc(Br)cc1	inactive: -24.9%
CCN1CCN(c2nc3sc4c(c3c3ncnn23)CC(C)CC4)CC1 (stereo unspecified)	inactive: -9.58%
O=C(CSc1nnc(CNc2ccc(F)cc2)n1Cc1ccccc1)N1CCOCC1	inactive: -5.13%
Cc1ccc(S(=O)(=O)Nc2ccc3c(c2)C(=O)N([C@H](C)CO)C[C@H](C)[C@@H](CN(C)Cc2ccc4c(c2)OCO4)OCCCC[C@H](C)O3)cc1	inactive: -2.42%
C[C@@H]1CCCCO[C@H](CN(C)S(=O)(=O)c2cccs2)[C@@H](C)CN([C@@H](C)CO)C(=O)c2cc(NC(=O)Nc3ccc(F)cc3)ccc2O1	inactive: -8.82%
O=C(Nc1ccccc1)Oc1cccc2cccnc12	inactive: -6.01%
Cc1cc(NC(=O)c2cc(-c3cccs3)on2)nn1Cc1ccc(Cl)cc1	inactive: 21%
O=c1[nH]c(Nc2ccccc2Cl)cc2ccccc12	inactive: -28.7%
COc1ccc(CN2[C@@H]3CN(C(=O)c4ccccc4)c4ccccc4[C@@H]3[C@@H]2CO)cc1	inactive: 12.5% [at 21 µM]
COc1ccc(NC(=O)N(C)C[C@H]2Oc3c(NC(=O)Nc4cccc5ccccc45)cccc3C(=O)N([C@H](C)CO)C[C@H]2C)cc1	inactive: -7.61%
COc1ccc(C#Cc2cnc3c(c2)C(=O)N([C@H](C)CO)C[C@@H](C)[C@H](CN(C)C(=O)Nc2cccc(OC)c2)O3)cc1	inactive: 31.8%
Nc1nc(SCC(=O)Nc2ccc(Cl)cc2)[nH]c(=O)c1-c1ccccc1	inactive: -14.9%
C/C(=N\NC(=O)c1nc(C)cc(C)n1)c1ccccc1	inactive: 17.7%
C[C@@H]1CN([C@H](C)CO)C(=O)Cc2cc(NS(=O)(=O)c3cccs3)ccc2O[C@@H]1CN(C)Cc1ccc(Cl)c(Cl)c1	inactive: 34.7%
COc1ccc(C2CC(=O)c3cnc(N)nc3C2)c(OC)c1 (stereo unspecified)	inactive: -0.556%
CCCN1CCN(C(=O)Nc2ccc(C(=O)OCC)cc2)CC1	inactive: -40.1%
C[C@H]1CN([C@@H](C)CO)C(=O)c2cc(NS(=O)(=O)c3ccc(Cl)cc3)ccc2O[C@@H]1CN(C)C(=O)Nc1ccc2c(c1)OCO2	inactive: 3.96% [at 21 µM]
CC(C)c1ccc(NC(=O)[C@H]2CSCN2C(=O)[C@@H]2CCC(=O)N2)cc1	inactive: -22.2%

3 structures from above, arranged by length of the SMILES, smallest number first.
SMILES	rescue activity (ATP increase)
O=c1[nH]c(Nc2ccccc2Cl)cc2ccccc12	inactive: -28.7%
COc1cc(OC)c(C2=NOC(C(=O)N3CCCc4ccccc43)C2)cc1Cl (stereo unspecified)	inactive: -4.45%
C[C@@H]1CCCCO[C@H](CN(C)S(=O)(=O)c2cccs2)[C@@H](C)CN([C@@H](C)CO)C(=O)c2cc(NC(=O)Nc3ccc(F)cc3)ccc2O1	inactive: -8.82%

Next structures:

SMILES	rescue activity (ATP increase)
COc1ccc(NC(=O)N2CC[C@@H]3[C@H]2c2cc(C4=CCCCC4)ccc2N(C)[C@H]3CO)cc1	inactive: 33%
O=C(N1CCCCCC1)N1CCN(S(=O)(=O)N2CCCCC2)CC1	inactive: -59.4%
C[C@H](CO)N1C[C@H](C)[C@@H](CN(C)C(=O)Nc2cccc3ccccc23)OCCCC[C@H](C)Oc2ccc(NS(=O)(=O)c3ccc(Cl)cc3)cc2C1=O	inactive: 9.38%
CS(=O)(=O)N1CCN(c2cccc(Cl)n2)CC1	inactive: 38.9%
CCOc1ccc(NCc2cccn2-c2nnc(N3CCC(C(=O)NCCCN4C(C)CCCC4C)CC3)s2)cc1 (stereo unspecified)	inactive: -20.1%
CC1CCCCN1S(=O)(=O)c1ccc(C(=O)Nc2sccc2C(N)=O)cc1 (stereo unspecified)	inactive: 39%
Cc1ccc(S(=O)(=O)Nc2ccc3c(c2)CC(=O)N([C@H](C)CO)C[C@@H](C)[C@H](CN(C)Cc2ccc(C(F)(F)F)cc2)O3)cc1	inactive: 35.7% [at 21 µM]
Cc1cc(C(=O)OCC(=O)c2c(N)n(C)c(=O)n(C)c2=O)c(C)o1	inactive: -12.8%
C[C@@H]1CCCCO[C@@H](CN(C)C(=O)Nc2cccc3ccccc23)[C@H](C)CN([C@H](C)CO)C(=O)c2cc(NS(=O)(=O)c3ccc(Cl)cc3)ccc2O1	inactive: -2.76%
CC(C)(C)OC(=O)N1CCC(C(=O)N[C@@H](Cc2ccccc2)C(=O)O)CC1	inactive: -16.6%
CCS(=O)(=O)c1ccc(-c2csc(-c3ccc(Cl)cc3)n2)c(Cl)c1Cl	inactive: -81%
COc1ccc(S(=O)(=O)NNC(=O)c2ccccc2-n2cccc2)cc1	inactive: 5.85%
O=C(C[C@@H]1CC[C@H]2[C@@H](COC[C@@H](O)CN2Cc2ccc(Oc3ccccc3)cc2)O1)Nc1nccs1	inactive: 15.2%
COc1ccc(CN2CCn3ncc(C(=O)Nc4cccc(C)c4)c3C2=O)cc1	inactive: -56.2%
COc1ccc(S(=O)(=O)Nc2ccc3c(c2)C(=O)N([C@@H](C)CO)C[C@@H](C)[C@H](CN(C)C(=O)Nc2c(C)noc2C)OCCCC[C@H](C)O3)cc1	inactive: 3.09%
C[C@@H]1CN([C@H](C)CO)C(=O)Cc2cc(NS(=O)(=O)c3cccs3)ccc2O[C@@H]1CN(C)Cc1ccc(-c2ccccc2)cc1	inactive: 40.7%
Cc1ccc(S(=O)(=O)Nc2cccc3c2O[C@@H](CN(C)Cc2ccc(C(F)(F)F)cc2)[C@H](C)CN([C@@H](C)CO)C3=O)cc1	inactive: 20.9% [at 21 µM]
O=C(Nc1nccs1)[C@H]1[C@H](CO)[C@H]2Cn3c(ccc(-c4ccccc4)c3=O)[C@H]2N1CC1CCCC1	inactive: 36.7%
OC[C@H]1[C@@H]2c3ccccc3NC[C@@H]2N1Cc1ccccc1Cl	inactive: -11.1%
COc1ccccc1N(CC(=O)Nc1ccc2c(c1)OCCO2)S(C)(=O)=O	inactive: 5.49%
CCOc1ccc(CNn2nnnc2N)cc1	inactive: 16.8%
CCCCN(CCCC)S(=O)(=O)c1ccc(NC(=O)CN2CCOCC2)cc1	inactive: 5.03%
Fc1ccccc1COc1ccc(-c2nnn(Cc3ccccc3F)n2)cc1	inactive: -10.4%
